For at least one entry, the source does not settle the construct or the ends of the probe. Results from cells or extracts need not show a direct contact. For part of these data: Negatives hold for the conditions tested. For part of these data: A weaker result is weaker than the reference pair of the same experiment. For part of these data: At least one verdict rests on a figure or table, not on a statement of the authors. For part of these data: Tags and fusion partners may be left off the protein sequences shown. For part of these data: Whether high values mean tight binding is not given here for every scale.
Assays:
SP1 = SP1 (UniProt P08047); test: DNA pull-down, SILAC MS; details: PBB: 150 mM NaCl, 50 mM Tris/HCl pH 8.0, 10 mM MgCl2, 0.5% NP-40, protease inhibitor; 200 ug SILAC nuclear extract, 2 h at 4 C (automated: 8 C); elution 16 mM biotin; protein in an extract; label: desthiobiotin-dATP fill-in
SP3 = SP3 (UniProt Q02447); test: DNA pull-down, SILAC MS; details: PBB: 150 mM NaCl, 50 mM Tris/HCl pH 8.0, 10 mM MgCl2, 0.5% NP-40, protease inhibitor; 200 ug SILAC nuclear extract, 2 h at 4 C (automated: 8 C); elution 16 mM biotin; protein in an extract; label: desthiobiotin-dATP fill-in
CREB1 = CREB1 (UniProt P16220); test: DNA pull-down, SILAC MS; details: PBB: 150 mM NaCl, 50 mM Tris/HCl pH 8.0, 10 mM MgCl2, 0.5% NP-40, protease inhibitor; 200 ug SILAC nuclear extract, 2 h at 4 C (automated: 8 C); elution 16 mM biotin; protein in an extract; label: desthiobiotin-dATP fill-in
TFAP4 = target: T1, TFAP4 (UniProt Q01664); test: DNA pull-down, SILAC MS; details: PBB: 150 mM NaCl, 50 mM Tris/HCl pH 8.0, 10 mM MgCl2, 0.5% NP-40, protease inhibitor; 200 ug SILAC nuclear extract, 2 h at 4 C (automated: 8 C); elution 16 mM biotin; protein in an extract; label: desthiobiotin-dATP fill-in
T1 sequence (looked up, limits assumed): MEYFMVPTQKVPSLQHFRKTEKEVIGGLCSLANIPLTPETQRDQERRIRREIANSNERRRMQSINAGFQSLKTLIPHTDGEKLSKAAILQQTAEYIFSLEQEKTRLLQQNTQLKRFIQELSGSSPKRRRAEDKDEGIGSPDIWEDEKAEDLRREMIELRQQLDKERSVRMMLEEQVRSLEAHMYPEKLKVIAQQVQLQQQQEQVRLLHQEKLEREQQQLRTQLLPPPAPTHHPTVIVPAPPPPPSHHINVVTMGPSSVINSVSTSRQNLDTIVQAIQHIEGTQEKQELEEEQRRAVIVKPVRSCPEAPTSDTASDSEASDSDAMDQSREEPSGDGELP

Protein sequences, listed by entry. Tags and fused reporters are not part of them. Lines headed by an entry give the natural chain unless they say otherwise; changes in a name come on top.
UniProt P08047, whole entry: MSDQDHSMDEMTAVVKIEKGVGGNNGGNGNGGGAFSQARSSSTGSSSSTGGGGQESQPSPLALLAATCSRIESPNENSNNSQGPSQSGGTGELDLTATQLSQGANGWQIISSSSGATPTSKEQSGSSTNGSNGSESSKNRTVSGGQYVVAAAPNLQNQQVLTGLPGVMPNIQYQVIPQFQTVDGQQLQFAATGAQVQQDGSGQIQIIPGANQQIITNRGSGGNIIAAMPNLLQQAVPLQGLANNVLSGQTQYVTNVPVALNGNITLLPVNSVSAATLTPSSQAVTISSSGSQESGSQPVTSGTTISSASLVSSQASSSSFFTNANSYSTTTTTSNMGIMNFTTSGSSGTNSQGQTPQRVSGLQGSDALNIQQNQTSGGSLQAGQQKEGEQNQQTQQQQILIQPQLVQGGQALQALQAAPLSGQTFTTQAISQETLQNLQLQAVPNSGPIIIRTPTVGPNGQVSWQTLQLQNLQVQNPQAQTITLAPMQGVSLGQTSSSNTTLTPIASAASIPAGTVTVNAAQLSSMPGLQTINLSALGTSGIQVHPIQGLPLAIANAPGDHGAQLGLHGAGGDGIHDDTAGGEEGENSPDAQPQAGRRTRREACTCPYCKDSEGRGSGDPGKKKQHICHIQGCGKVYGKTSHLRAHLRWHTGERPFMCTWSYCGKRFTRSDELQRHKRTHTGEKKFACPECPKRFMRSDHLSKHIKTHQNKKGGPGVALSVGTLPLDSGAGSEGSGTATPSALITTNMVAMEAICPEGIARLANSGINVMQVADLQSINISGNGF
UniProt Q02447: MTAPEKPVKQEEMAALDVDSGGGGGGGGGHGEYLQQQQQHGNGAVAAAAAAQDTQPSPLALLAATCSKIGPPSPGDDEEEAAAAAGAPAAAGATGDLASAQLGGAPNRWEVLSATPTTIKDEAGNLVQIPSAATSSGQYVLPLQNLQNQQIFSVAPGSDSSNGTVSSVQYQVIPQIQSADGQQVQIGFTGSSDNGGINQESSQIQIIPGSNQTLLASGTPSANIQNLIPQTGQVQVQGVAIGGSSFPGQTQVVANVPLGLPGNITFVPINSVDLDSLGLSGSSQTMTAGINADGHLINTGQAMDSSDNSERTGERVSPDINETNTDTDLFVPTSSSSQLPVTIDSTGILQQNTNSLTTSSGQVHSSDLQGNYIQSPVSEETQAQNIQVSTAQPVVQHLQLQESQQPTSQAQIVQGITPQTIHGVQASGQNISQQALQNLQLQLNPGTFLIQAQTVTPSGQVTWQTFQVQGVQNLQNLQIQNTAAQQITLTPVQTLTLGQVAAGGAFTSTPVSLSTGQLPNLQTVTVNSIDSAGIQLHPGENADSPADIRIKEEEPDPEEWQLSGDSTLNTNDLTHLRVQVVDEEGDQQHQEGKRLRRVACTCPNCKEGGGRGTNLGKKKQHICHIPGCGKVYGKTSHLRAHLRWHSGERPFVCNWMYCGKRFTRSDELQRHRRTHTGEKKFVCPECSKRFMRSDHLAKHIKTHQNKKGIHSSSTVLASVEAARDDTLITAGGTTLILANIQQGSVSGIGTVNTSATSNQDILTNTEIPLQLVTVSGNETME
UniProt P16220: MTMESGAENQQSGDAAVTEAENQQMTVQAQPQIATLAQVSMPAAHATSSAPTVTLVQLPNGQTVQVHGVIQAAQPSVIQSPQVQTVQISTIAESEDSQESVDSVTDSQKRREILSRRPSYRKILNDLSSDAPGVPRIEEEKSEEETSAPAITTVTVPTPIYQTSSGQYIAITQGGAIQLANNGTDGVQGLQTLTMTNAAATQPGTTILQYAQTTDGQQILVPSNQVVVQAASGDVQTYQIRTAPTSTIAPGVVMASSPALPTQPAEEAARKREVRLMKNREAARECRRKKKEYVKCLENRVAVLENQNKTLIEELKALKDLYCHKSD
UniProt Q01196, whole entry: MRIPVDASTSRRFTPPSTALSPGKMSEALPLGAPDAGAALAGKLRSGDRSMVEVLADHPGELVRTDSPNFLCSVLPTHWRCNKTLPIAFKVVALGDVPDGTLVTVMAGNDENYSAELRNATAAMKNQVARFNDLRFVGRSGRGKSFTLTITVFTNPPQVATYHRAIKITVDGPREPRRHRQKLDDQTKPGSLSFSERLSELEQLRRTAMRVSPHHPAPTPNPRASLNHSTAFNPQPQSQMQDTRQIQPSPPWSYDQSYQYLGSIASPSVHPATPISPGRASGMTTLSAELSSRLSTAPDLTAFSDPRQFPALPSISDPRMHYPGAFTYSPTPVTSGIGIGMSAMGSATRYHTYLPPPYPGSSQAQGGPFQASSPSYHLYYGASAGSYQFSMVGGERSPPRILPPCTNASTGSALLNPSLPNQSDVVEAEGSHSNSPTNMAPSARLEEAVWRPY
UniProt Q9UJU2, whole entry: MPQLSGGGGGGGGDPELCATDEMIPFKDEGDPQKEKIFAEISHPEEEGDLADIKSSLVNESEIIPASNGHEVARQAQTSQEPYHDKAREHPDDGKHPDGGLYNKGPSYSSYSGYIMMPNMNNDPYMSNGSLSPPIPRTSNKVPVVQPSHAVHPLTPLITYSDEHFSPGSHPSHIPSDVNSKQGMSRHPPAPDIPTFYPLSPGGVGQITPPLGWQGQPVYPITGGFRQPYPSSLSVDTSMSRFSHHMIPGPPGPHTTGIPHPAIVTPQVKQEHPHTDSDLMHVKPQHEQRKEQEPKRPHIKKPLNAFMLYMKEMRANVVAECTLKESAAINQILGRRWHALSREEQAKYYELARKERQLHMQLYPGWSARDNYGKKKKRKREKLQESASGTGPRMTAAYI

RUNX1 + CBFB = test: DNA pull-down, SILAC MS; details: PBB: 150 mM NaCl, 50 mM Tris/HCl pH 8.0, 10 mM MgCl2, 0.5% NP-40, protease inhibitor; 200 ug SILAC nuclear extract, 2 h at 4 C (automated: 8 C); elution 16 mM biotin; protein in an extract; label: desthiobiotin-dATP fill-in
RUNX1 = RUNX1 (UniProt Q01196); test: DNA pull-down, immunoblot; details: PBB: 150 mM NaCl, 50 mM Tris/HCl pH 8.0, 10 mM MgCl2, 0.5% NP-40, protease inhibitor, 200 ug SILAC nuclear extract, 2 h at 4 C (automated: 8 C), elution 16 mM biotin, protein in an extract, label: desthiobiotin-dATP fill-in
LEF1 = LEF1 (UniProt Q9UJU2); test: DNA pull-down, SILAC MS; details: PBB: 150 mM NaCl, 50 mM Tris/HCl pH 8.0, 10 mM MgCl2, 0.5% NP-40, protease inhibitor; 200 ug SILAC nuclear extract, 2 h at 4 C (automated: 8 C); elution 16 mM biotin; protein in an extract; label: desthiobiotin-dATP fill-in
TFAP2 (AP-2) = test: DNA pull-down, SILAC MS and immunoblot; details: PBB: 150 mM NaCl, 50 mM Tris/HCl pH 8.0, 10 mM MgCl2, 0.5% NP-40, protease inhibitor; 200 ug SILAC nuclear extract, 2 h at 4 C (automated: 8 C); elution 16 mM biotin; protein in an extract; label: desthiobiotin-dATP fill-in

AAGGCTTGGGCTCCTCCCGCCAGCCAAC / TTGTTGGCTGGCGGGAGGAGCCCAAGCC [rs509813*G]
binding result (SP1): binds more weakly | binding result (SP3): binds more weakly

TTGAAAGAGGGCTCATAATTCCATGTCAGGGAAGAGCCGCTGGC / AAGCCAGCGGCTCTTCCCTGACATGGAATTATGAGCCCTCTTTC [rs12722522*T]
binding result (CREB1): binds more weakly | binding result (TFAP4): binds more weakly

AAGGCTTGGGCTCCTCCCCCCAGCCAAC / TTGTTGGCTGGGGGGAGGAGCCCAAGCC [rs509813*C]
binding result (SP1): binds | binding result (SP3): binds

TTGAAAAGAATAGAACCCACCCACTGAAACTATCAGAGATCAAATG / AACATTTGATCTCTGATAGTTTCAGTGGGTGGGTTCTATTCTTTTC [rs12722508*T]
binding result (RUNX1 + CBFB): binds more weakly | binding result (RUNX1; legend prints A- and G-allele, text: RUNX1 binds both alleles): binds more weakly

TTGAACCCAGAAGCGACATTAGCAAGGGGTTCGTTTCACGGAATC / AAGATTCCGTGAAACGAACCCCTTGCTAATGTCGCTTCTGGGTTC [rs41295061*C]
binding result (LEF1): binds more weakly

AACAAAACTGCAGGATCGAACTGACCGCACGGGGCACGTGTC / TTGACACGTGCCCCGTGCGGTCAGTTCGATCCTGCAGTTTTG [AP2_A]
binding result (TFAP2 (AP-2)): no binding

TTGAACCCAGAAGCGACATTAGAAAGGGGTTCGTTTCACGGAATC / AAGATTCCGTGAAACGAACCCCTTTCTAATGTCGCTTCTGGGTTC [rs41295061*A]
binding signal (fold over C allele) (LEF1): 8

TTGAAAAGAATAGAACCCACCCACAGAAACTATCAGAGATCAAATG / AACATTTGATCTCTGATAGTTTCTGTGGGTGGGTTCTATTCTTTTC [rs12722508*A]
binding result (RUNX1 + CBFB): binds | binding result (RUNX1): binds

TTGAAAGAGGGCTCATAATTCCACGTCAGGGAAGAGCCGCTGGC / AAGCCAGCGGCTCTTCCCTGACGTGGAATTATGAGCCCTCTTTC [rs12722522*C]
binding result (CREB1): binds | binding result (TFAP4): binds

— publication PMC3459973
